Measurements from PubChem BioAssay AID504834 (National Center for Advancing Translational Sciences (NCATS), 2011).
Among all 320,000 compounds or so, about 22,000 (6.9%) were called active. This list was built around the results that the source calls inconclusive (neither active nor inactive); the mix of calls is not that of the screen. The call rests on the fitted dose curve; in most records, active means well fitted inhibition curve with a large enough effect; inconclusive means small, poorly fitted or top-dose-only effect, or another doubt; inactive means no such curve, though single readings can be large or run the other way. Potencies of inconclusive entries are doubtful fits and often do not repeat.
Potency means the concentration at half of the fitted maximal effect.

Assay: Primary qHTS for delayed death inhibitors of the malarial parasite plastid, 96 hour incubation
Conditions: P. falciparum luciferase reporter growth; series mostly up to 28.7 µM
Outline: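 Infected RBCs, 2% Hct / 0.05% parasitemia final; luciferase-reporter P. falciparum; cpd 96 h, 37 C, 5% CO2; luciferase detection reagent; luminescence.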
In the case of `CCOc1ccc2c(c1)c(=O)c(S(=O)(=O)c1ccc(CC)cc1)cn2C`, the Potency is reported as inconclusive: 14.7 µM [inhibitor, single point].
For `Cc1ccc(S(=O)(=O)NN2C(=O)c3ccccc3NC2c2cccc(O)c2)cc1` (stereo unspecified), the Potency was inconclusive: 5.22 µM [inhibitor, partial curve, poor fit].
In the case of `Cc1nc2ccccc2n1CC(=O)N/N=C\C=C\c1ccccc1`, the Potency is reported as inconclusive: 4.15 µM [inhibitor, single point].
In the case of `Cc1ccc(C)c(N(CC(=O)NCC2CCCO2)C(=O)CCC(=O)Nc2nccs2)c1` (stereo unspecified), the Potency is reported as inconclusive: 10.4 µM [inhibitor, partial curve].
In the case of `COc1cccc2cc(-c3nnc(SCC(=O)Nc4nc(C)cs4)n3C)oc12`, the Potency is reported as inconclusive: 0.0041 µM [inhibitor, full curve, poor fit].
In the case of `CCOC(=O)c1cnc(SCC(=O)Nc2nc(C)c(C)s2)nc1N`, the Potency is reported as inconclusive: 18.5 µM [inhibitor, single point].
In the case of `CC1CCC(NC(=O)c2ccc3snnc3c2)CC1` (stereo unspecified), the Potency is reported as inconclusive: 9.28 µM [inhibitor, partial curve].
In the case of `Cc1cccc(NC(=O)c2cc(S(=O)(=O)N3CCc4ccccc43)cn2C)c1C`, the Potency is reported as “inactive”.
With `Cc1ccc(CCNC(=O)c2ccc3nc4ccc(Cl)cc4c(=O)n3c2)cc1` the Potency was “inactive”.
For `Cn1c(=O)c2c(nc(N/N=C/c3cccs3)n2Cc2ccc(Br)cc2)n(C)c1=O`, the Potency was inconclusive: 18.5 µM [inhibitor, single point].
With `CSc1nsc(/C=C/Nc2cccc(Cl)c2)c1C#N` the Potency was inconclusive: 0.828 µM [inhibitor, full curve, poor fit].
For `COc1ccc(C(=O)NC2CCCc3c2cnn3-c2ccc(C)c(C)c2)c(OC)c1OC` (stereo unspecified), the Potency was inconclusive: 18.5 µM [inhibitor, single point].
In the case of `CC(C)OC(=O)c1ccc2nc3ccccc3nc2c1`, the Potency is reported as “inactive”.
For `CS(=O)(=O)N1CCn2c1nc1ccccc12`, the Potency was “inactive”.
With `CC1CC(C)CN(C(=O)COC(=O)c2c[nH]c3ccccc23)C1` (stereo unspecified) the Potency was “inactive”.
With `CC(Nc1cc(=O)n(C)c(=O)n1C)c1ccccc1` (stereo unspecified) the Potency was inconclusive: 18.5 µM [inhibitor, single point].
With `O=C(Nc1ccc(NS(=O)(=O)c2ccc([N+](=O)[O-])cc2)cc1)c1ccco1` the Potency was inconclusive: 18.5 µM [inhibitor, single point].
For `CCOc1ccccc1NC(=O)C(NCC1CCCCC1)c1ccccc1` (stereo unspecified), the Potency was inconclusive: 10.4 µM [inhibitor, single point].
In the case of `Cc1ccc(C)c(NC(=O)C(CC(=O)O)Cc2ccccc2)c1` (stereo unspecified), the Potency is reported as inconclusive: 18.5 µM [inhibitor, single point].
For `Cc1cc(/C=N/NC(=O)C(O)(c2ccccc2)c2ccccc2)c(C)n1-c1ccccc1`, the Potency was inconclusive: 13.1 µM [inhibitor, partial curve].
With `Cn1c(COc2ccc(C(=O)O)cc2)nc2ccccc21` the Potency was inconclusive: 14.7 µM [inhibitor, single point].
In the case of `Cc1ccc(SC(C)c2nc(-c3ccccc3)no2)cc1` (stereo unspecified), the Potency is reported as “inactive”.
For `CS(=O)(=O)N(CCC#N)Cc1ccc(/C=C2\C(=O)Nc3ccccc32)o1`, the Potency was inconclusive: 14.7 µM [inhibitor, partial curve, poor fit].
In the case of `O=C(NCc1ccc2c(c1)OCO2)NC12CC3CC(CC(C3)C1)C2`, the Potency is reported as “inactive”.
With `Cc1cccc2sc(NC(=O)c3cccc(S(=O)(=O)N4CCc5ccccc54)c3)nc12` the Potency was “inactive”.
In the case of `COc1ccc(NC(=S)N2CCNC(=O)C2CC(=O)Nc2ccc(C)cc2)cc1` (stereo unspecified), the Potency is reported as inconclusive: 14.7 µM [inhibitor, single point].
In the case of `CC(=O)c1c(N)[nH]c(-c2ccccc2)nc1=S`, the Potency is reported as inconclusive: 0.586 µM [inhibitor, partial curve, poor fit].
With `CC(C)c1nnc(NC(=O)CCC(=O)NC2CCCCCCC2)s1` the Potency was “inactive”.
For `O=C(c1cccc(S(=O)(=O)N2CCc3ccccc3C2)c1)N1CCN(c2ccccc2)CC1`, the Potency was inconclusive: 11.7 µM [inhibitor, partial curve, poor fit].
For `CCOc1ccc(C2=NNC(c3cccs3)=Nc3ccc(OC)cc32)cc1OCC`, the Potency was “inactive”.
In the case of `COc1ccc(CSc2nnnn2Cc2ccccc2)cc1OC`, the Potency is reported as “inactive”.
For `CCc1c(C)nc2c(C#N)c(C)[nH]n2c1=O`, the Potency was active: 5.22 µM.
With `O=C(Cc1ccccc1)Nc1cc([N+](=O)[O-])ccc1N1CCOCC1` the Potency was inconclusive: 2.33 µM [inhibitor, single point].
For `CCOC(=O)[C@@H]1[C@H]2COc3ccc(Br)cc3[C@@H]2N2C(=O)N(c3ccc(OC)cc3)C(=O)[C@]12C`, the Potency was active: 3.29 µM.
In the case of `Cn1cnnc1SCC(=O)Nc1ccc(Oc2ccccc2)cc1`, the Potency is reported as “inactive”.
In the case of `CCN1C(=NCCOC)N[C@@H](c2cccc(C(F)(F)F)c2)C(C(=O)OC)=C1C`, the Potency is reported as active: 2.08 µM.
In the case of `C/C(=N/NC(=O)c1ccc(Br)o1)c1cccc(NC(=O)c2ccc(F)cc2)c1`, the Potency is reported as inconclusive: 14.7 µM [inhibitor, partial curve].
For `CCCOCC1CC2(CC(C)(c3csc(N)n3)OC2=O)C(=O)O1` (stereo unspecified), the Potency was inconclusive: 10.4 µM [inhibitor, single point].
For `Cc1ccccc1/C=N/Nc1ncnc2nc[nH]c12`, the Potency was “inactive”.
With `Cc1onc(-c2c(Cl)cccc2Cl)c1C(=O)Nc1ccc(Cl)cn1` the Potency was inconclusive: 1.65 µM [inhibitor, full curve].
With `Cc1ccc(C(C[N+](=O)[O-])Sc2ccc(N)cc2)cc1` (stereo unspecified) the Potency was active: 11.7 µM.
For `COc1ccccc1C(=O)NNC(=O)C1CC=CCC1` (stereo unspecified), the Potency was inconclusive: 11.7 µM [inhibitor, single point].
With `COCCn1c(SCC(=O)Nc2cc(C)on2)nnc1-c1c[nH]c2ccccc12` the Potency was inconclusive: 13.1 µM [inhibitor, single point].
For `CCC1CCCCN1CCCNC(=O)Cn1ncc2c([nH]c3ccc(C)cc32)c1=O` (stereo unspecified), the Potency was inconclusive: 6.57 µM [inhibitor, partial curve, poor fit].
In the case of `CCC1CCCCN1CCCNC(=O)c1ccc2c(=O)n(CCOC)c(=O)[nH]c2c1` (stereo unspecified), the Potency is reported as inconclusive: 10.4 µM [inhibitor, single point].
